The record followed here is PubChem BioAssay AID445 (National Center for Advancing Translational Sciences (NCATS), 2006).

Some of the results follow. Further columns of the screen follow, without active or inactive calls. Compounds called inactive in the main read-out are mostly missing here. Potencies come from curve fits of mixed quality, noted in brackets.

The assay in a line: IkB Signaling. Conditions: ABC-DLBCL IkBa-CBG/CBR dual luciferase ratio (green luciferase fused to IkBa over red control in OCI-Ly3 lymphoma cells), 4 h. The method in brief: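 In this assay, an IκBα–CBG68 fusion accumulates when IKK-driven degradation is blocked; native CBR normalizes for cell number. OCI-Ly3 cells were treated 4 h with compound and doxycycline, then green and red light read after Chroma-Glo addition.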
The mark [1] stands for this setting: measured here: control luc red channel unless noted.
[2] abbreviates: measured here: IkB-luc green channel.
[3] abbreviates: measured here: control luc red channel.

On to `CCOc1ccc(CCNC(=O)CCc2c(C)nc3c(c(C)nn3-c3ccccc3)c2C)cc1OCC`, for which the AC50 under setting [1] is 12.6 µM [falling, partial curve].
As for `Cc1[nH]c2ccc(-c3nnc(SCC(=O)NCc4ccco4)n3Cc3ccccc3)cc2c1C`, the AC50 under setting [1] was 10 µM [falling, partial curve].
On the same count and under the same terms, to `O=C(Nc1ccc(Br)c(Cl)c1)c1ccco1` belongs 25.1 µM [falling, partial curve]; to `Cc1ccc(C2CC(=O)N(Cc3ccccc3F)c3c2c(C)nn3-c2nc(C)cc(C)n2)cc1` (configuration not stated), 25.1 µM [falling, partial curve, poor fit]; to `CCc1cccc2c1NC(=O)[C@]21[C@@H]2C(=O)N(Cc3ccccc3)C(=O)[C@@H]2[C@@H]2CCCN21`, 15.8 µM [falling, partial curve].
In the case of `CCOc1ccc(CCNC(=O)c2ccc3c(c2)c(C)c(C)n3C)cc1`, the AC50 under setting [1] is 25.1 µM [falling, single point].
Still for that read-out and setting: to `COC(=O)c1ccc(NC(=O)CSc2nc(=O)n(Cc3ccco3)c3c2CCC3)cc1` belongs 39.8 µM [falling, single point]; to `COc1cc(C(=O)N(Cc2ccc(C(C)C)cc2)C2CCS(=O)(=O)C2)cc(OC)c1OC` (configuration not stated), 0.794 µM [rising, full curve, poor fit]; to `O=C1c2[nH]nc(-c3ccccc3O)c2C(c2ccccc2F)N1Cc1ccco1` (configuration not stated), 25.1 µM [falling, partial curve].
With `Cc1ccccc1C(=O)N1CCC(c2nc3ccccc3s2)CC1`, the AC50 under setting [1] was 15.8 µM [falling, partial curve].
`COc1ccc(NC(=O)c2cc(-c3ccccc3OC)on2)cc1`: the half-maximal activity concentration (AC50) is 15.8 µM [rising, partial curve] under setting [2] and 7.94 µM [falling, partial curve] under setting [3].
With `O=C(Nc1cccnc1)c1cc(-c2cccs2)on1`, the AC50 under setting [1] was 2.51 µM [falling, full curve].
As to `CC(C)c1ccc(NS(=O)(=O)c2ccc3[nH]cc(C(=O)NC4CCCC4)c(=O)c3c2)cc1`, the AC50 under setting [1] is 25.1 µM [falling, partial curve].
As for `Cc1ccc(N2CC3=C(C2=O)C(c2ccc(Br)cc2)NC(=O)N3C)cc1` (configuration not stated), the AC50 under setting [1] is 25.1 µM [falling, single point].
As to `Cc1ccccc1CNC(=O)c1ccc(NC(=O)c2nsc3ccccc23)cc1`, the AC50 under setting [1] is 0.2 µM [falling, full curve].
On the same count and under the same terms, to `CC(=O)N1CCN(c2ccc(NC(=O)c3ccccc3Br)cc2Cl)CC1` belongs 20 µM [falling, partial curve].
In the case of `CCn1c(=O)cc(SCC(=O)Nc2ccc(C)c(F)c2)c2ccccc21`, under setting [1], the AC50 was 15.8 µM [falling, partial curve].
For the compound `COc1cccc2sc(Nc3nc(-c4ccccn4)cs3)nc12`, the AC50 under setting [2] was 0.794 µM [rising, partial curve] and the AC50 under setting [3] is 7.94 µM [falling, full curve].
As to `Cc1ccc(-c2nc(C(=O)NCc3ccc(Cl)cc3)c3n2CCCCC3)cc1`, under setting [1], the AC50 was 39.8 µM [falling, single point].
With `Cc1nc2ccccc2c(=O)n1NC(=O)c1c(O)c2c(n(CC(C)C)c1=O)CCCC2`, the AC50 under setting [1] is 12.6 µM [falling, partial curve].
On the same count and under the same terms, to `CC(=O)C1=C(OC(=O)C(C)C)c2ccccc2S(=O)(=O)N1Cc1ccccc1` belongs 39.8 µM [falling, single point].
On to `Cc1c(NC(=O)c2ccc3c(c2)OCO3)cccc1-c1nc2ccccc2o1`, for which the AC50 under setting [2] was 2 µM [falling, full curve, poor fit] and the AC50 under setting [3] is 2 µM [falling, partial curve].
For the compound `O=C(COC(=O)c1cnccn1)Nc1ccc(Cl)cc1`, the AC50 under setting [1] was 10 µM [falling, partial curve].
Consider `O=C1c2ccccc2C(=O)N1CCc1nc2ccccc2c(=O)n1Cc1ccco1`, for which the AC50 under setting [1] was 12.6 µM [falling, partial curve].
Turning to `CCN(C(=O)CSc1nc2ccccc2n1CC(=O)Nc1cccc(C#N)c1)c1ccccc1`, under setting [1], the AC50 was 25.1 µM [falling, single point].
The same measure, in the same setting: to `Cc1cc(NC(=O)CN2C(=O)C(C)(C)c3ccccc32)ccc1Br` belongs 25.1 µM [falling, partial curve, poor fit].
On to `COc1ccc(C(CC(=O)Nc2ccc(F)c(Cl)c2)N2Cc3ccccc3C2=O)cc1OC` (configuration not stated), for which, under setting [1], the concentration at half-maximal activity (AC50) was 31.6 µM [falling, single point].
Same read-out and setting: to `Cc1ccc(S(=O)(=O)Cc2ccc(C(=O)N3CCN(c4cccc(C)c4C)CC3)o2)cc1` belongs 39.8 µM [falling, single point]; to `Cc1ccc(-c2csc3nnc(SCC(=O)Nc4cccc(C)n4)n23)cc1`, 15.8 µM [falling, partial curve].
On the same count and under the same terms, to `COc1ccc(C(=O)OCc2cc(=O)n3nc(-c4cccs4)sc3n2)cc1` belongs 15.8 µM [falling, partial curve]; to `CCC(Cn1nnc2ccccc2c1=O)NC(=O)Nc1cccc(C)c1C` (configuration not stated), 39.8 µM [falling, single point].
With `CCOc1ccc2oc(-c3ccccc3)c(C(=O)O)c2c1`, the AC50 under setting [1] is 25.1 µM [falling, single point].
On the same count and under the same terms, to `O=[N+]([O-])c1cc(-c2nc(-c3ccccc3)no2)ccc1N1CCCCC1` belongs 3.98 µM [rising, partial curve].
`Cc1ccc(NC(=O)C2CCCN(c3nnc(C)c4c(C)n(-c5ccccc5)nc34)C2)c(Cl)c1` (configuration not stated): the AC50 under setting [1] was 31.6 µM [falling, single point].
With `CCC(=O)N1CCc2cc(Br)cc(S(=O)(=O)CCC(=O)N3CCN(c4cccc(C(F)(F)F)c4)CC3)c21`, the AC50 under setting [1] was 3.16 µM [falling, full curve].
Take `c1ccc(C(c2nnnn2Cc2ccco2)N2CCN(C3CCCC3)CC2)cc1` (configuration not stated): the AC50 under setting [1] is 15.8 µM [falling, partial curve].
Same read-out and setting: to `CC(C)Cn1c(N)c(S(=O)(=O)c2cccs2)c2nc3ccccc3nc21` belongs 12.6 µM [falling, partial curve]; to `Cc1nn(Cc2ccc(F)cc2)c(C)c1NC(=O)c1noc2c1CCCCC2`, 15.8 µM [falling, partial curve].
Same read-out and setting: to `Cc1ccccc1NC(=O)Cn1c(SCC(=O)Nc2ccc(F)cc2)nc2ccccc21` belongs 6.31 µM [falling, partial curve].
